Test results from PMC9477884.
Results are given in words; binding and its absence hold for the method and conditions named. In cells and extracts the contact can be indirect. Some results given as binding are weak or reduced against the parent protein; the word gives no strength.

By UniProt entry, the sequences of proteins in these tests, tags left out.
UniProt P9WII3: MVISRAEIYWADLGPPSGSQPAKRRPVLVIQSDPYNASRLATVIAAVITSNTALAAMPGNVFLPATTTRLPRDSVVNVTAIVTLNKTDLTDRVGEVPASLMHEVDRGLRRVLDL

Biological target: hexa-histidine tagged MazF6 (Toxin) (Mycobacterium tuberculosis) (UniProt P9WII3)
Test: pull-down

B1: MazE6 antitoxin (residue 1-82) (protein, UniProt P9WJ87 1-82)
chain: MKTAISLPDETFDRVSRRASELGMSRSEFFTKAAQRYLHELDAQLLTGQIDRALESIHGTDEAEALAVANAYRVLETMDDEW
binding: binds
